Assay results from PubChem BioAssay AID1671190 (National Center for Advancing Translational Sciences (NCATS), 2021).
About 6,100 (1.1%) of roughly 580,000 compounds were called active. This list was built around the results that the source calls inconclusive (neither active nor inactive); the mix of calls is not that of the screen. The call rests on the fitted dose curve; in most records, active means well fitted inhibition curve with a large enough effect; inconclusive means small, poorly fitted or top-dose-only effect, or another doubt; inactive means no such curve, though single readings can be large or run the other way. A potency beside an inconclusive call is a rough fit, not a confirmed value.
Potency means the concentration at half of the fitted maximal effect.

Sequences of proteins named here, by UniProt entry; tags and fusion partners are left off. A change or cut given only in a name is not applied to a line headed by its entry.
UniProt P18054: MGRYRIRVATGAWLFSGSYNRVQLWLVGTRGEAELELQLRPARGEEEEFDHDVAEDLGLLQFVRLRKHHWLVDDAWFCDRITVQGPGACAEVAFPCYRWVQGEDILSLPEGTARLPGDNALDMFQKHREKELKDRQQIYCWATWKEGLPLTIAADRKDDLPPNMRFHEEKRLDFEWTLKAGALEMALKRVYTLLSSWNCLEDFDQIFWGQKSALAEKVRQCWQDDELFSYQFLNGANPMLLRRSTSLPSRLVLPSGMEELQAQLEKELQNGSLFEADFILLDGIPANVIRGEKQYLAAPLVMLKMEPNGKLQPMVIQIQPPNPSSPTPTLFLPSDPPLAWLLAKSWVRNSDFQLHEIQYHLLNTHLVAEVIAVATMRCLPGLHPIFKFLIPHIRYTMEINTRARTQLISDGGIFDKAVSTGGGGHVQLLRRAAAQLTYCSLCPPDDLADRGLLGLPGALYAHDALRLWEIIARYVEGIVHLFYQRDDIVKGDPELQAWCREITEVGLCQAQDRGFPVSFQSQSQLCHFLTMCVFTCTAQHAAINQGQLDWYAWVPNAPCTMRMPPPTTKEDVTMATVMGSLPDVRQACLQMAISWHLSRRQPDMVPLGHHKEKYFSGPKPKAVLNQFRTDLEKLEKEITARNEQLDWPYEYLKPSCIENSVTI

Each compound was assayed against Polyunsaturated fatty acid lipoxygenase ALOX12 (Homo sapiens) (UniProt P18054) (assay: Primary qHTS assay for inhibitors of human arachidonate 12S-lipoxygenase (ALOX12): Round 2). Conditions: purified 12hLO, xylenol orange hydroperoxide absorbance; series mostly up to 108 µM.
Summary of the method: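 Hydroperoxide product was detected by ferrous iron/xylenol orange as the 573 to 405 nm absorbance ratio. Arachidonic acid at 40 uM (final) was turned over for 30 min at room temperature by 150 nM human 12hLO, pH 7.0 Hepes buffer, after 15 min compound preincubation.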
`O=C(NCC(c1ccco1)N1CCc2ccccc2C1)c1cccc([N+](=O)[O-])c1` (stereo not given) was tested, and the Potency was inconclusive: 50.1 µM [inhibitor, partial curve, poor fit].
`O=C(CSc1nnc(CNC(=O)c2ccco2)o1)Nc1ccc(Br)cc1` was tested, and the Potency was inconclusive: 39.8 µM [inhibitor, partial curve, poor fit].
For `CCCCn1nnnc1C(c1ccccc1)N1CCN(c2ccc(C(F)(F)F)cc2[N+](=O)[O-])CC1` (stereo not given), the Potency was inconclusive: 15.8 µM [inhibitor, partial curve, poor fit].
`O=C(CC1C(=O)N(c2ccccc2)C(=O)N1C1CCCCC1)Nc1ccccc1` (stereo not given) was tested, and the Potency was “inactive”.
With `O=C(/C=C/c1cccs1)N1CCC(Cc2ccccc2)CC1` the Potency was inconclusive: 39.8 µM [inhibitor, partial curve, poor fit].
`CCN(C(=O)COC(=O)CNS(=O)(=O)c1ccc(SC)c([N+](=O)[O-])c1)C1CCCCC1` was tested, and the Potency was inconclusive: 4.47 µM [inhibitor, full curve, poor fit].
In the case of `C=CCOC(=O)C1=C(C)NC(C)=C(C(=O)OCC=C)C1c1ccc(O)cc1`, the Potency is reported as inconclusive: 50.1 µM [inhibitor, partial curve, poor fit].
`COc1ccc2c3c(n(C)c2c1)[C@@H](CO)N(C(=O)Cc1ccccn1)CC31CCN(C)CC1` was tested, and the Potency was inconclusive: 112 µM [inhibitor, partial curve, poor fit].
For `O=C(N[C@@H](Cn1cc(Cl)c(=O)[nH]c1=O)C(=O)O)C1CCC1`, the Potency was inconclusive: 112 µM [inhibitor, partial curve].
`CCOc1ccccc1NC(=O)CN1CCN(S(=O)(=O)c2ccc(Br)cc2)CC1` was tested, and the Potency was inconclusive: 126 µM [inhibitor, partial curve, poor fit].
In the case of `CS(=O)(=O)N1CCCC(C(=O)Nc2ccccc2F)C1` (stereo not given), the Potency is reported as “inactive”.
For `O=C(Nc1nc2n(n1)C(c1ccc(F)cc1)C=C(c1ccccc1)N2)c1cccc([N+](=O)[O-])c1` (stereo not given), the Potency was inconclusive: 50.1 µM [inhibitor, partial curve, poor fit].
With `O=C(Nc1ccc2c(c1)C(N1CCOCC1)c1ccccc1-2)C(F)(F)F` (stereo not given) the Potency was inconclusive: 44.7 µM [inhibitor, partial curve, poor fit].
`CCCCc1ccc(NC(=S)NCc2cccs2)cc1` was tested, and the Potency was inconclusive: 50.1 µM [inhibitor, partial curve, poor fit].
In the case of `COc1ccc(NC(=O)[C@@H]2C[C@H](c3ccc(F)cc3)N(Cc3csc(C)n3)C2)cn1`, the Potency is reported as inconclusive: 25.1 µM [inhibitor, partial curve, poor fit].
